# The list shows a part of the results. Further columns of the screen follow, without active or inactive calls. Compounds called inactive in the main read-out are mostly missing here. Potencies come from curve fits of mixed quality, noted in brackets.
# Test: qHTS Assay for Lipid Storage Modulators in Drosophila S3 Cells;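 as to cell number change: cells counted by Cell Tracker Red CMTPX staining in the red channel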
# Settings: BODIPY lipid droplet fluorescence, 18-24 h; for cell number change: measured here: cell count max response, cells fed with added oleic acid
# Procedure, shortened: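 Laser-scanning cytometry quantifies lipid droplet accumulation (500–530 nm total intensity; droplet/cell object ratio) in oleic acid-fed (400 uM added) Drosophila S3 cells treated with a concentration series. 20 uM Triacsin C defined 100% inhibition.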
# [1] = measured here: cell number channel AC50, cells fed with added oleic acid
# [2] = measured here: lipid fluorescence (Fed channel) AC50, cells fed with added oleic acid
SMILES,cell number change,AC50 [1],AC50 [2]
CCOC(=O)N1CCN(C(=O)c2ccc3oc(CCCc4ccccc4)nc3c2)CC1,-44.4%,"23.1 µM [falling, single point]","13 µM [falling, partial curve]"
Cc1c(NC(=O)c2ccccc2NC(=O)COc2ccccc2)cccc1C(=O)O,28.1%,,"29.1 µM [rising, single point]"
CCOc1ccc(-c2nn[nH]n2)cc1,15.7%,,"2.06 µM [falling, partial curve]"
O=[N+]([O-])c1cn(Cc2ccccc2)cn1,16.6%,"0.411 µM [falling, single point]","0.58 µM [falling, single point]"
Cc1ccc(NCc2ccccc2O)c(C)c1,-31.2%,"29.1 µM [falling, single point]","29.1 µM [falling, single point]"
Cc1ccccc1N1CCN(C(=S)c2ccccc2)CC1,31.4%,"10.3 µM [rising, partial curve]","0.58 µM [rising, full curve]"
O=c1c(-c2ccc3c(c2)OCCO3)c(C(F)(F)F)oc2cc(O)cc(O)c12,-27.1%,"0.82 µM [falling, full curve, poor fit]",
Cc1ccc(-c2nc(C(=O)NCC3CCCO3)cc3c2[nH]c2ccccc23)cc1 (stereo not given),20.3%,,"0.517 µM [falling, full curve, poor fit]"
CCOc1cc(S(=O)(=O)N2CCN(C(=O)c3ccco3)CC2)ccc1F,-21.8%,,"2.91 µM [rising, single point]"
O=C(Cn1c(=O)n(Cc2ccco2)c(=O)c2ccccc21)Nc1cccc(Cl)c1,49.8%,"2.06 µM [rising, partial curve]","1.3 µM [rising, partial curve]"
CCN(CC(=O)Nc1c(F)cccc1F)C(=O)/C=C/c1ccc(C)cc1,-6.74%,,"29.1 µM [falling, partial curve, poor fit]"
CCOc1ccc(Nc2nc(NCC(=O)O)nc(N)c2[N+](=O)[O-])cc1,10.2%,,"29.1 µM [rising, single point]"
CCN1CCc2nc(NC(=O)Cc3ccc4c(c3)OCCO4)sc2C1,-3%,,"0.146 µM [rising, full curve, poor fit]"
COc1cc(-c2cc(C(=O)Nc3cc(S(=O)(=O)N4CCOCC4)ccc3C)c3ccccc3n2)cc(OC)c1OC,-3.5%,,
Cc1cc(C(=O)COC(=O)C2CCN(C(=O)c3ccc(Cl)cc3)CC2)c(C)n1CC1CCCO1 (stereo not given),1.23%,"3.66 µM [falling, single point]","29.1 µM [rising, single point]"
O=C(Cn1cnc2c(cnn2-c2ccc(F)cc2)c1=O)N1CCN(c2ccccc2F)CC1,-0.323%,,
Nc1ccc(S(=O)C(F)(F)F)cc1 (stereo not given),,,"2.91 µM [rising, single point]"
CCCCNC(=O)/C(C#N)=C/c1ccc(-c2ccc(S(=O)(=O)N3CCOCC3)cc2)o1,10.4%,"7.31 µM [rising, single point]","20.6 µM [falling, single point]"
CC(=O)NCCNC(=O)c1ccc(NC2=NC3CS(=O)(=O)CC3S2)cc1 (stereo not given),-22.9%,,"0.366 µM [falling, full curve, poor fit]"

# 10 entries already listed, sorted by heavy-atom count, ascending.
SMILES,cell number change,AC50 [1],AC50 [2]
Nc1ccc(S(=O)C(F)(F)F)cc1 (stereo not given),,,"2.91 µM [rising, single point]"
CCOc1ccc(-c2nn[nH]n2)cc1,15.7%,,"2.06 µM [falling, partial curve]"
Cc1ccc(NCc2ccccc2O)c(C)c1,-31.2%,"29.1 µM [falling, single point]","29.1 µM [falling, single point]"
Cc1ccccc1N1CCN(C(=S)c2ccccc2)CC1,31.4%,"10.3 µM [rising, partial curve]","0.58 µM [rising, full curve]"
CCOc1ccc(Nc2nc(NCC(=O)O)nc(N)c2[N+](=O)[O-])cc1,10.2%,,"29.1 µM [rising, single point]"
CC(=O)NCCNC(=O)c1ccc(NC2=NC3CS(=O)(=O)CC3S2)cc1 (stereo not given),-22.9%,,"0.366 µM [falling, full curve, poor fit]"
O=c1c(-c2ccc3c(c2)OCCO3)c(C(F)(F)F)oc2cc(O)cc(O)c12,-27.1%,"0.82 µM [falling, full curve, poor fit]",
Cc1ccc(-c2nc(C(=O)NCC3CCCO3)cc3c2[nH]c2ccccc23)cc1 (stereo not given),20.3%,,"0.517 µM [falling, full curve, poor fit]"
O=C(Cn1cnc2c(cnn2-c2ccc(F)cc2)c1=O)N1CCN(c2ccccc2F)CC1,-0.323%,,
Cc1cc(C(=O)COC(=O)C2CCN(C(=O)c3ccc(Cl)cc3)CC2)c(C)n1CC1CCCO1 (stereo not given),1.23%,"3.66 µM [falling, single point]","29.1 µM [rising, single point]"

# Later entries:

SMILES,cell number change,AC50 [1],AC50 [2]
C=CCN=c1scc(-c2ccccc2)n1/N=C/c1ccccn1,-36.1%,"29.1 µM [falling, single point]",
O=C(CN(c1cccc([N+](=O)[O-])c1)S(=O)(=O)c1ccccc1)N1CCCCC1,-23.8%,,"6.51 µM [rising, single point]"
Cc1ccc(OCC(=O)N/N=C\c2ccc(-c3cccc(C(=O)O)c3)o2)c(C)c1,-0.905%,,"29.1 µM [rising, single point]"
O=C1CN(c2ccccc2F)C(=O)CN1c1ccccc1F,-6.95%,,
CCN(CCCNC(=O)Cn1ncc2c(=O)oc3ccccc3c21)c1cccc(C)c1,-33.8%,"23.1 µM [falling, partial curve, poor fit]",
Cn1c(CN2CCOCC2)nnc1SCC(N)=O,-20.3%,,
O=C1NC(c2cn(-c3ccccc3)nc2-c2cccs2)C(C(=O)c2cccnc2)C(O)(C(F)(F)F)N1 (stereo not given),65%,"2.91 µM [rising, partial curve, poor fit]","0.146 µM [rising, full curve, poor fit]"
CCCOc1ccccc1NS(=O)(=O)c1ccc2[nH]c(=O)[nH]c2c1,16.7%,,"1.16 µM [falling, single point]"
Cc1c(C(=O)N/N=C/c2ccoc2)cccc1[N+](=O)[O-],-34.7%,"0.184 µM [falling, full curve, poor fit]","0.58 µM [rising, single point]"
O=C(CCCCCNC(=O)N1CCn2c1nc1ccccc12)NCc1ccc(Cl)cc1,3.23%,"0.00411 µM [rising, full curve, poor fit]",
CCCCSc1nc(SCC(=O)NCc2ccco2)c2c3c(sc2n1)COC(C)(CC)C3 (stereo not given),-21.2%,,"1.46 µM [falling, partial curve]"
Cn1c(-[n+]2c(-c3ccccc3)cc(-c3ccccc3)cc2-c2ccccc2)nc2c([N+](=O)[O-])cccc21,18.3%,,
O=C1C=C(NCc2ccco2)CCC1,-18.6%,"0.517 µM [falling, full curve, poor fit]","14.6 µM [falling, single point]"
COc1ccccc1-n1nnnc1SCC(=O)NC1CC1,,"6.51 µM [rising, single point]",
O=C(O)c1cc(Br)ccn1,6.51%,"4.11 µM [falling, single point]","4.61 µM [falling, single point]"
CCCC(C)C(=O)N(Cc1ccccc1)c1ccccn1 (stereo not given),17.7%,,"6.51 µM [falling, single point]"
CCN(CC(=O)NC1CCS(=O)(=O)C1)S(=O)(=O)c1ccc(Cl)cc1C(F)(F)F (stereo not given),116%,,"6.51 µM [falling, partial curve, poor fit]"
CCn1c(=NC(=O)CS(=O)(=O)c2ccccc2)sc2cccc(OC)c21,-24.3%,,"6.51 µM [falling, single point]"
CC(=O)NC(c1ccccc1)c1nc2ccccc2[nH]1 (stereo not given),-19%,,"29.1 µM [falling, single point]"

SMILES,cell number change,AC50 [1],AC50 [2]
C=CCOC(=O)C(C#N)c1nc2ccccc2nc1N1CCCC1 (stereo not given),7.5%,,
CC(C)C(NC(=O)c1ccc2c(c1)OCO2)C(=O)N/N=C\c1ccco1 (stereo not given),-13.1%,"0.0259 µM [falling, full curve, poor fit]",
N/C(=N\O)c1ccc([N+](=O)[O-])s1,-21.8%,"6.51 µM [falling, single point]","2.59 µM [falling, partial curve, poor fit]"
CC(C)(C)c1ccc(OC(=O)CN2C(=O)C3C4CCC(C4)C3C2=O)cc1 (stereo not given),-1.54%,,"4.61 µM [falling, partial curve]"
CCCCC(O)(CCCC)C(=O)NN(C(=O)CCl)c1ccccc1,-15.3%,,"23.1 µM [falling, single point]"
COC(=O)c1ccccc1NC(=O)C1(S(=O)(=O)c2ccc(Cl)cc2)CC1,-26.7%,"0.164 µM [falling, full curve, poor fit]",
CCS(=O)(=O)N1CCN(Cc2c[nH]c3ccccc23)CC1,10.9%,,"29.1 µM [rising, single point]"
NC(=O)CSc1nc2scc(-c3ccc(Cl)cc3)c2c(=O)n1Cc1ccccc1,-7.46%,,"29.1 µM [falling, single point]"
CCN(CC)S(=O)(=O)c1ccc(NC(=S)NC(=O)CC(C)C)cc1,0.47%,,
CCn1c(CCNC(=O)c2ccc(Cl)c(Cl)c2)nnc1SCCOc1ccc(OC)cc1,-28.3%,,"23.1 µM [falling, partial curve]"
Cc1cc(O)c(-c2cc(C(=O)Nc3ccc(S(=O)(=O)N4CCOCC4)cc3)[nH]n2)cc1C,,"2.31 µM [falling, single point]","2.06 µM [falling, partial curve]"
CCCCn1ccnc1C(=O)c1ccc(S(=O)(=O)N(CCOC)CCOC)cc1,-23.2%,"0.00517 µM [falling, full curve, poor fit]",
CCc1nc2nc(C)c(NS(=O)(=O)c3ccc(CC(C)C)cc3)c(=O)n2[nH]1,,,"6.51 µM [rising, single point]"
COC(=O)Cc1ccc(NC(=O)c2ccc3c(c2)C(=O)N(Cc2ccco2)C3=O)cc1,-7.92%,,"23.1 µM [falling, single point]"
CCCCn1nnc(NC(=O)COc2ccc(Cl)c(C)c2)n1,-111%,"23.1 µM [falling, partial curve]","20.6 µM [falling, partial curve]"
CC(=O)CCn1cnc([N+](=O)[O-])n1,2.3%,"0.0651 µM [rising, full curve, poor fit]",
CCN(CCCNC(=O)CCn1c(=S)[nH]c2cc3c(cc2c1=O)OCO3)c1cccc(C)c1,368%,"23.1 µM [rising, partial curve]","29.1 µM [rising, partial curve]"
COCCn1c(SCc2ccc(OC)c(F)c2)nnc1-c1ccncc1,,,"1.84 µM [falling, partial curve]"
